Consider seven molecules from PMC11263569.

Sequences of proteins named here, by UniProt entry; tags and fusion partners are left off.
UniProt Q9UNE7: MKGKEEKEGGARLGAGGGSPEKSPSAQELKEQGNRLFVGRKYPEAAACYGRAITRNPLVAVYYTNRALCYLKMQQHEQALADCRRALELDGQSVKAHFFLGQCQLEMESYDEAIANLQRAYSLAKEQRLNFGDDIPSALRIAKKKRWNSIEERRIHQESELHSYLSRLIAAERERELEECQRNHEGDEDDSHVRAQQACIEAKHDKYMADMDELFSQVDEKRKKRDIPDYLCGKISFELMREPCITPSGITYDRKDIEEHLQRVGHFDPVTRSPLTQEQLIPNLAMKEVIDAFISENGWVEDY
UniProt P35579: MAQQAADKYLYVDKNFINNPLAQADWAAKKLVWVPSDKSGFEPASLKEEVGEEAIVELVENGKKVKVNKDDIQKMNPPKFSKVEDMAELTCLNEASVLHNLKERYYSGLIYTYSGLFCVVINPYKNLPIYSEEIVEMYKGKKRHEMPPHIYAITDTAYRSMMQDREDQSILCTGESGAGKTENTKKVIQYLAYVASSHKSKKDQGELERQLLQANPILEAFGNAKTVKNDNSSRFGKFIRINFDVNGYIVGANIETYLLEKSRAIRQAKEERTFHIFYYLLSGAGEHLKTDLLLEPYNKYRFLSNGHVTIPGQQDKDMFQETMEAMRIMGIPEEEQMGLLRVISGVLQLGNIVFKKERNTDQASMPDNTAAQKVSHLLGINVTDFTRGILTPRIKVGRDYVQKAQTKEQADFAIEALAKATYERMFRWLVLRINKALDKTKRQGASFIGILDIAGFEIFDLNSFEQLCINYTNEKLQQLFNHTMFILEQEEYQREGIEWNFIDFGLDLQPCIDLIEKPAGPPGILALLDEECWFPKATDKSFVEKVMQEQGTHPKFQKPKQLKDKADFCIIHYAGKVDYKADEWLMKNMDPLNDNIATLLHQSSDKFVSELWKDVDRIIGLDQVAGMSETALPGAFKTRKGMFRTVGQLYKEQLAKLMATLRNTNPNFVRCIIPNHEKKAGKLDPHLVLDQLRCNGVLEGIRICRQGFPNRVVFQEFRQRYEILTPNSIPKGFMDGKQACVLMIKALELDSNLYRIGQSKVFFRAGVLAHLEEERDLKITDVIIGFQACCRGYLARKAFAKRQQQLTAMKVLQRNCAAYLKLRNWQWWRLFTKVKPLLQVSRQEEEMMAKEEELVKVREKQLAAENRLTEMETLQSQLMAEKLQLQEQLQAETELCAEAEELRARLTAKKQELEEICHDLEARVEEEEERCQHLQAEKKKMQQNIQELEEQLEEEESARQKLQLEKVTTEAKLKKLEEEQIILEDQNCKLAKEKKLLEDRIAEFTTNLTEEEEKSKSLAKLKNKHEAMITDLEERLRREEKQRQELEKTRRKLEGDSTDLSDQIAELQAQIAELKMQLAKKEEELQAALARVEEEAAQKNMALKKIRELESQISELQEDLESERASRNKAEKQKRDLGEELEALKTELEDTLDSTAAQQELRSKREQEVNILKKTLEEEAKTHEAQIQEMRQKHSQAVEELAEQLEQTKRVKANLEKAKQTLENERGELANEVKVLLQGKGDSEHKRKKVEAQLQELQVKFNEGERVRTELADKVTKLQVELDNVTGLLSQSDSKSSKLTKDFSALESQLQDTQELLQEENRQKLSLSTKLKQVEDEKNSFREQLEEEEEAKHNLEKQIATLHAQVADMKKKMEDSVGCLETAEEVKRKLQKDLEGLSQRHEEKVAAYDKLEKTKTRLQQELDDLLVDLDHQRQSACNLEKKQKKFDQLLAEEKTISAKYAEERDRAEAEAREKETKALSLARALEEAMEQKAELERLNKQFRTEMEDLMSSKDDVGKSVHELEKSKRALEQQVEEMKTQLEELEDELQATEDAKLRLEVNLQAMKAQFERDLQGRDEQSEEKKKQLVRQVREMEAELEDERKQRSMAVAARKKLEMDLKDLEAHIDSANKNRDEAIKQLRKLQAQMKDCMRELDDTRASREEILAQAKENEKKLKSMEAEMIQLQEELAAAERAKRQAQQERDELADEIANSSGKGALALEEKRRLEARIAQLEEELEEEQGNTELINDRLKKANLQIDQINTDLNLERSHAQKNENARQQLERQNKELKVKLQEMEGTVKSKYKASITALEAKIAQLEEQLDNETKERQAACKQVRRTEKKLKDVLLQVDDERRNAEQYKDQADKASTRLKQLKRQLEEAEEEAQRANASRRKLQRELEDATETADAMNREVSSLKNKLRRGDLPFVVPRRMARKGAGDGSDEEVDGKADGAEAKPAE

In test [1] the target is T1, FLAG-RGS19 (regulator of G-protein signaling 19) (UniProt P49795).
T1 sequence: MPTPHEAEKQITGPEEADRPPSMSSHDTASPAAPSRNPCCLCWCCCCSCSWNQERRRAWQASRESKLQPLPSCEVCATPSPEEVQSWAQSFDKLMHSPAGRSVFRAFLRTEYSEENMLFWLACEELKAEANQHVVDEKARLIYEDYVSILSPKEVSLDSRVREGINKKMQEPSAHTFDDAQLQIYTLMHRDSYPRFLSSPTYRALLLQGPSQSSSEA
In words: co-IP; Huh7 and HCCLM3 cells transfected with FLAG-RGS19; immunoprecipitation and Western blot. A general note: In western blotting, separated proteins are transferred to a membrane and probed.

The target of test [2] is T2, RGS19, endogenous in HCC cells (human (endogenous in HepG2, HCCLM3, Huh7)) (UniProt P49795).
T2 sequence: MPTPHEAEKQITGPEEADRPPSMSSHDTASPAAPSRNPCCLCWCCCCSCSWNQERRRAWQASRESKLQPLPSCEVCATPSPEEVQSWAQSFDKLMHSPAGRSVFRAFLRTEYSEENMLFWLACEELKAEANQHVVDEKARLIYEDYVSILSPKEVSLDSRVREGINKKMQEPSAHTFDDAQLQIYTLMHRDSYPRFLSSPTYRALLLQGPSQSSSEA
The experiment in a line: co-IP; endogenous proteins in HCC cells (HepG2, HCCLM3, Huh7); also in cells transfected with vector or RGS19 plasmids, shNC or sh-RGS19, or with STUB1 knocked down or overexpressed.

Test [3] has as its target STUB1^His (UniProt Q9UNE7). The experiment in a line: pull-down; His pull-down in vitro with STUB1^His; source of MYH9 not told.
Test [4] concerns the target T3, GST-RGS19 (UniProt P49795).
T3 sequence: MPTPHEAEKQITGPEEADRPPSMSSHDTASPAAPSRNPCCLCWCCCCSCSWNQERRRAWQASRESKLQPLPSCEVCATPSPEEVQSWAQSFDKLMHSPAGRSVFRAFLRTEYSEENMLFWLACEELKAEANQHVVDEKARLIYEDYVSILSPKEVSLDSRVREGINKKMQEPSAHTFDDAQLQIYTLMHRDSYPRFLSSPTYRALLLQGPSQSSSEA
The experiment in a line: pull-down; GST pull-down in vitro with purified GST-RGS19; source of MYH9 not told.

Test [5] concerns the target T1, FLAG-RGS19 (regulator of G-protein signaling 19). In words: co-IP; HEK-293T cells co-transfected; lysates immunoprecipitated with anti-Flag antibody (RGS19), immunoblot with anti-His antibody (MYH9).
For test [6], the target named is MYH9 (non-muscle myosin heavy chain IIA), endogenous in HCC cells (human (endogenous in Huh7, HCCLM3, HepG2)) (UniProt P35579). The experiment in a line: co-IP; endogenous proteins in HCC cells (HepG2, HCCLM3, Huh7); also in cells transfected with vector or RGS19 plasmids, shNC or sh-RGS19, or with STUB1 knocked down or overexpressed.
Test [7] has as its target MYH9^His, full length (UniProt P35579). In words: co-IP; HEK-293T cells co-transfected; lysates immunoprecipitated with anti-His antibody (MYH9), immunoblot with anti-Flag (RGS19) or anti-Myc (STUB1) antibody.
Test [8] has the same target. The experiment in a line: co-IP; indicated doses of purified RGS19 or STUB1 protein added to lysates of HEK-293T cells transfected with His-MYH9; immunoprecipitation with anti-His antibodies, Western blot; only the binder purified.

Results are given in words; binding and its absence hold for the method and conditions named. Binding seen in cells or lysates may run through a third protein. Some entries that bind do so weakly or less than the wild type. For part of these data: Where a sequence is shown, tags or fusion partners need not be part of it.

Turning to “MYH9 (non-muscle myosin heavy chain IIA), endogenous in HCC cells (from UniProt P35579 1-1960)”, the binding entry in test [1] and in test [2] was “binds” in each case.
Regarding “MYH9 used in the in vitro pull-down assays (from UniProt P35579 1-1960)”, the binding entry in test [3] and in test [4] was “binds” each time.
Consider “MYH9^His, full length (from UniProt P35579 1-1960)”, for which the binding entry in test [5] is recorded as “binds”.
For the molecule “STUB1, endogenous in HCC cells (from UniProt Q9UNE7 1-303) (enzyme)”, the binding entry in test [6] was “binds”.
For “STUB1^Myc (from UniProt Q9UNE7 1-303) (enzyme)”, the binding entry in test [7] was “binds”.
As for “purified STUB1 protein (added to lysates, Fig. 4h) (from UniProt Q9UNE7 1-303) (enzyme)”, the binding result in test [8] is “binds”.

B1: purified RGS19 protein (added to lysates, Fig. 4h) (protein, UniProt P49795 1-217)
chain: MPTPHEAEKQITGPEEADRPPSMSSHDTASPAAPSRNPCCLCWCCCCSCSWNQERRRAWQASRESKLQPLPSCEVCATPSPEEVQSWAQSFDKLMHSPAGRSVFRAFLRTEYSEENMLFWLACEELKAEANQHVVDEKARLIYEDYVSILSPKEVSLDSRVREGINKKMQEPSAHTFDDAQLQIYTLMHRDSYPRFLSSPTYRALLLQGPSQSSSEA
For the molecule B1, in test [8], the binding entry was “binds”.
